# From the supplement of paper PMC8728848
# Some of the results follow.
# B1: PX9961W-pdi-543-27-543 (Parabacteroides distasonis) (protein)
# chain: EGNATTTSYFLNDQQAIDAIDGLYERFHQEGCYGRELFWEQGAACDIVWGRTRGYNSLATLAYTGDESPLRDVFSRMYSTMSRANWIIQELVKKEKGTTLTAVEKRSLGEAYFSRGWAHYLIAYRYGTDKQGVPFVRYEDFPDDYDNSIPPQQATVMDNYKLIIEDMDKAIAYLPIFESYDADNRGRAHQAAAVAFKAKTYAYWATWDATQWNNVIEMVNQLENNYNRDLAPTFAELFSSDLKDYWNAEYLWTIPSIGGALPGGTEFPGIILENKGWGKYNGWGQMKPSYDIYEEMAKDGKGNDRLVRSILEYNQEFPFFGETRKFWSTSDLEAGFMINKYMDAFKYSDPVGEGAVSANGDWPTVRVNFPIIRFAEMLLFRAEAYLMTGQADKATADINRIRLRSNLTPLTGTATMKDLYHERRCELAFEFTDHLFDLKRWNRSSNADIKTLADKELNAHPRIRRYEDRANPESAFTIIGYEDYTNKNAYQAHMMVFPYPSEEITKSNGQLKQNEGY
# Key:
# Assay in all cases: glycan array binding signal (z-score within array); higher = stronger binding
# Conditions in all cases: glycan notation: IUPAC condensed, linker removed
# GlcNAc(b1-3)Gal(b1-4)Glc = molecular target: GlcNAc(b1-3)Gal(b1-4)Glc
# How it was run: (§1)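 The binding signal is a Z-score computed within each array. Data were drawn from 3228 arrays in the Consortium for Functional Glycomics database, restricted to those with a known protein sequence. Scores were averaged over arrays of the same protein sequence at different concentrations or buffers, and over linkers, and negative values can be taken as non-binding.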
# [1] = molecular target: GlcNAc(b1-3)Gal(b1-4)GlcNAc
# How it was run: as §1
# [2] = molecular target: GlcNAc(b1-3)Gal(b1-4)GlcNAc(b1-2)Man(a1-3)[GlcNAc(b1-3)Gal(b1-4)GlcNAc(b1-2)Man(a1-6)]Man(b1-4)GlcNAc(b1-4)GlcNAc
# How it was run: as §1
# [3] = molecular target: GlcNAc(b1-3)Gal(b1-4)GlcNAc(b1-2)Man(a1-3)[GlcNAc(b1-3)Gal(b1-4)GlcNAc(b1-2)Man(a1-6)]Man(b1-4)GlcNAc(b1-4)[Fuc(a1-6)]GlcNAc
# How it was run: as §1
# [4] = molecular target: GlcNAc(b1-3)Gal(b1-4)GlcNAc(b1-2)[GlcNAc(b1-3)Gal(b1-4)GlcNAc(b1-6)]Man(a1-6)[GlcNAc(b1-3)Gal(b1-4)GlcNAc(b1-2)Man(a1-3)]Man(b1-4)GlcNAc(b1-4)GlcNAc
# How it was run: as §1
# [5] = molecular target: GlcNAc(b1-3)Gal(b1-4)GlcNAc(b1-3)Gal(b1-4)GlcNAc
# How it was run: as §1
# [6] = molecular target: GlcNAc(b1-3)Gal(b1-4)GlcNAc(b1-3)Gal(b1-4)GlcNAc(b1-2)Man(a1-3)[GlcNAc(b1-3)Gal(b1-4)GlcNAc(b1-3)Gal(b1-4)GlcNAc(b1-2)Man(a1-6)]Man(b1-4)GlcNAc(b1-4)GlcNAc
# How it was run: as §1
# [7] = molecular target: GlcNAc(b1-3)Gal(b1-4)GlcNAc(b1-3)Gal(b1-4)GlcNAc(b1-2)Man(a1-3)[GlcNAc(b1-3)Gal(b1-4)GlcNAc(b1-3)Gal(b1-4)GlcNAc(b1-2)Man(a1-6)]Man(b1-4)GlcNAc(b1-4)[Fuc(a1-6)]GlcNAc
# How it was run: as §1
# [8] = molecular target: GlcNAc(b1-3)Gal(b1-4)GlcNAc(b1-3)Gal(b1-4)GlcNAc(b1-2)[GlcNAc(b1-3)Gal(b1-4)GlcNAc(b1-3)Gal(b1-4)GlcNAc(b1-6)]Man(a1-6)[GlcNAc(b1-3)Gal(b1-4)GlcNAc(b1-3)Gal(b1-4)GlcNAc(b1-2)Man(a1-3)]Man(b1-4)GlcNAc(b1-4)[Fuc(a1-6)]GlcNAc
# How it was run: as §1
# [9] = molecular target: GlcNAc(b1-3)Gal(b1-4)GlcNAc(b1-3)Gal(b1-4)GlcNAc(b1-3)Gal(b1-4)GlcNAc(b1-2)Man(a1-3)[GlcNAc(b1-3)Gal(b1-4)GlcNAc(b1-3)Gal(b1-4)GlcNAc(b1-3)Gal(b1-4)GlcNAc(b1-2)Man(a1-6)]Man(b1-4)GlcNAc(b1-4)GlcNAc
# How it was run: as §1
# [10] = molecular target: GlcNAc(b1-3)Gal(b1-4)GlcNAc(b1-3)Gal(b1-4)GlcNAc(b1-3)Gal(b1-4)GlcNAc(b1-2)Man(a1-3)[GlcNAc(b1-3)Gal(b1-4)GlcNAc(b1-3)Gal(b1-4)GlcNAc(b1-3)Gal(b1-4)GlcNAc(b1-2)Man(a1-6)]Man(b1-4)GlcNAc(b1-4)[Fuc(a1-6)]GlcNAc
# How it was run: as §1
# [11] = molecular target: GlcNAc(b1-3)Gal(b1-4)GlcNAc(b1-3)Gal(b1-4)GlcNAc(b1-3)Gal(b1-4)GlcNAc(b1-2)[GlcNAc(b1-3)Gal(b1-4)GlcNAc(b1-3)Gal(b1-4)GlcNAc(b1-3)Gal(b1-4)GlcNAc(b1-6)]Man(a1-6)[GlcNAc(b1-3)Gal(b1-4)GlcNAc(b1-3)Gal(b1-4)GlcNAc(b1-3)Gal(b1-4)GlcNAc(b1-2)Man(a1-3)]Man(b1-4)GlcNAc(b1-4)[Fuc(a1-6)]GlcNAc
# How it was run: as §1
# [12] = molecular target: GlcNAc(b1-3)Gal(b1-4)GlcNAc(b1-3)Gal(b1-4)GlcNAc(b1-3)Gal(b1-4)GlcNAc(b1-3)Gal(b1-4)GlcNAc(b1-2)Man(a1-3)[GlcNAc(b1-3)Gal(b1-4)GlcNAc(b1-3)Gal(b1-4)GlcNAc(b1-3)Gal(b1-4)GlcNAc(b1-3)Gal(b1-4)GlcNAc(b1-2)Man(a1-6)]Man(b1-4)GlcNAc(b1-4)GlcNAc
# How it was run: as §1
# [13] = molecular target: GlcNAc(b1-3)Gal(b1-4)GlcNAc(b1-3)Gal(b1-4)GlcNAc(b1-3)Gal(b1-4)GlcNAc(b1-3)Gal(b1-4)GlcNAc(b1-2)Man(a1-3)[GlcNAc(b1-3)Gal(b1-4)GlcNAc(b1-3)Gal(b1-4)GlcNAc(b1-3)Gal(b1-4)GlcNAc(b1-3)Gal(b1-4)GlcNAc(b1-2)Man(a1-6)]Man(b1-4)GlcNAc(b1-4)[Fuc(a1-6)]GlcNAc
# How it was run: as §1
# [14] = molecular target: GlcNAc(b1-3)Gal(b1-4)GlcNAc(b1-3)Gal(b1-4)GlcNAc(b1-3)Gal(b1-4)GlcNAc(b1-3)Gal(b1-4)GlcNAc(b1-2)[GlcNAc(b1-3)Gal(b1-4)GlcNAc(b1-3)Gal(b1-4)GlcNAc(b1-3)Gal(b1-4)GlcNAc(b1-3)Gal(b1-4)GlcNAc(b1-6)]Man(a1-6)[GlcNAc(b1-3)Gal(b1-4)GlcNAc(b1-3)Gal(b1-4)GlcNAc(b1-3)Gal(b1-4)GlcNAc(b1-3)Gal(b1-4)GlcNAc(b1-2)Man(a1-3)]Man(b1-4)GlcNAc(b1-4)[Fuc(a1-6)]GlcNAc
# How it was run: as §1
# [15] = molecular target: GlcNAc(b1-3)Gal(b1-4)GlcNAc(b1-3)Gal(b1-4)GlcNAc(b1-3)GalNAc
# How it was run: as §1
# [16] = molecular target: GlcNAc(b1-3)Gal(b1-4)GlcNAc(b1-3)GalNAc
# How it was run: as §1
# [17] = molecular target: GlcNAc(b1-3)Gal(b1-4)GlcNAc(b1-3)[GlcNAc(b1-3)Gal(b1-4)GlcNAc(b1-3)]GalNAc
# How it was run: as §1
# [18] = molecular target: GlcNAc(b1-3)Gal(b1-4)GlcNAc(b1-6)[Gal(b1-3)]GalNAc
# How it was run: as §1
# [19] = molecular target: GlcNAc(b1-3)Gal(b1-4)GlcNAc(b1-6)[GlcNAc(b1-3)Gal(b1-3)]GalNAc
# How it was run: as §1
# [20] = molecular target: GlcNAc(b1-3)Gal(b1-4)GlcNAc(b1-6)[GlcNAc(b1-3)]Gal(b1-4)GlcNAc
# How it was run: as §1
# GlcNAc(b1-3)GalNAc = molecular target: GlcNAc(b1-3)GalNAc
# How it was run: as §1
# GlcNAc(b1-3)Man = molecular target: GlcNAc(b1-3)Man
# How it was run: as §1
# [21] = molecular target: GlcNAc(b1-3)[GlcNAc(b1-4)][GlcNAc(b1-6)]GlcNAc
# How it was run: as §1
# [22] = molecular target: GlcNAc(b1-3)[GlcNAc(b1-6)]Gal(b1-4)GlcNAc
# How it was run: as §1
# [23] = molecular target: GlcNAc(b1-3)[GlcNAc(b1-6)]GalNAc
# How it was run: as §1
# [24] = molecular target: GlcNAc(b1-4)Gal(b1-4)GlcNAc
# How it was run: as §1
# GlcNAc(b1-4)GlcNAc = molecular target: GlcNAc(b1-4)GlcNAc
# How it was run: as §1
# [25] = molecular target: GlcNAc(b1-4)GlcNAc(b1-4)GlcNAc
# How it was run: as §1
# [26] = molecular target: GlcNAc(b1-4)GlcNAc(b1-4)GlcNAc(b1-4)GlcNAc(b1-4)GlcNAc
# How it was run: as §1
# [27] = molecular target: GlcNAc(b1-4)GlcNAc(b1-4)GlcNAc(b1-4)GlcNAc(b1-4)GlcNAc(b1-4)GlcNAc
# How it was run: as §1
# [28] = molecular target: GlcNAc(b1-4)[GlcNAc(b1-6)]GalNAc
# How it was run: as §1
# [29] = molecular target: GlcNAc(b1-6)Gal(b1-4)GlcNAc
# How it was run: as §1
# GlcNAc(b1-6)GalNAc = molecular target: GlcNAc(b1-6)GalNAc
# How it was run: as §1
# [30] = molecular target: GlcNAc6S(b1-3)Gal(b1-4)GlcNAc
# How it was run: as §1
# Kdn(a2-3)Gal(b1-3)GalNAc = molecular target: Kdn(a2-3)Gal(b1-3)GalNAc
# How it was run: as §1
# Kdn(a2-3)Gal(b1-3)GlcNAc = molecular target: Kdn(a2-3)Gal(b1-3)GlcNAc
# How it was run: as §1
binder,measurement,setting,value
B1,glycan array binding signal (z-score),GlcNAc(b1-3)Gal(b1-4)Glc,-0.018
same,glycan array binding signal (z-score),[1],-0.442
same,glycan array binding signal (z-score),[2],0.398
same,glycan array binding signal (z-score),[3],0.81
same,glycan array binding signal (z-score),[4],2.42
same,glycan array binding signal (z-score),[5],1.36
same,glycan array binding signal (z-score),[6],2.38
same,glycan array binding signal (z-score),[7],1.58
same,glycan array binding signal (z-score),[8],0.54
same,glycan array binding signal (z-score),[9],1.92
same,glycan array binding signal (z-score),[10],1.14
same,glycan array binding signal (z-score),[11],0.321
same,glycan array binding signal (z-score),[12],0.627
same,glycan array binding signal (z-score),[13],2.16
same,glycan array binding signal (z-score),[14],2.07
same,glycan array binding signal (z-score),[15],0.148
same,glycan array binding signal (z-score),[16],-0.785
same,glycan array binding signal (z-score),[17],1.26
same,glycan array binding signal (z-score),[18],0.168
same,glycan array binding signal (z-score),[19],0.07
same,glycan array binding signal (z-score),[20],0.324
same,glycan array binding signal (z-score),GlcNAc(b1-3)GalNAc,-0.745
same,glycan array binding signal (z-score),GlcNAc(b1-3)Man,0.469
same,glycan array binding signal (z-score),[21],0.162
same,glycan array binding signal (z-score),[22],-0.115
same,glycan array binding signal (z-score),[23],0.099
same,glycan array binding signal (z-score),[24],0.426
same,glycan array binding signal (z-score),GlcNAc(b1-4)GlcNAc,0
same,glycan array binding signal (z-score),[25],-0.547
same,glycan array binding signal (z-score),[26],1.13
same,glycan array binding signal (z-score),[27],-0.34
same,glycan array binding signal (z-score),[28],0.793
same,glycan array binding signal (z-score),[29],0.326
same,glycan array binding signal (z-score),GlcNAc(b1-6)GalNAc,0.306
same,glycan array binding signal (z-score),[30],0.873
same,glycan array binding signal (z-score),Kdn(a2-3)Gal(b1-3)GalNAc,0.669
same,glycan array binding signal (z-score),Kdn(a2-3)Gal(b1-3)GlcNAc,-0.01

# Nothing new here: an excerpt of the list.
binder,measurement,setting,value
B1,glycan array binding signal (z-score),[26],1.13
same,glycan array binding signal (z-score),[27],-0.34
